Laboratory results published in PubChem BioAssay AID485314 (National Center for Advancing Translational Sciences (NCATS), 2010).
In all, about 340,000 compounds went through this assay and about 4,500 (1.3%) were called active. The inconclusive results got no clear call from the source; some entries with a clear call stand among them for comparison. Calls come from the whole dose curve; as a rule, active = well fitted inhibition curve with a large enough effect; inconclusive = small, poorly fitted or top-dose-only effect, or another doubt; inactive = no such curve, though single readings can be large or run the other way. Potencies beside an inconclusive call are fits to weak or partial responses and may not hold up.

Biological target: DNA polymerase beta (Homo sapiens) (UniProt P06746)
Assay: qHTS Assay for Inhibitors of DNA Polymerase Beta
Details: Pol beta primer extension/strand displacement, fluorescence kinetic; activity change, negative = inhibition: at 114 µM (top of the series)
How it was run: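 Kinetic readout of DNA synthesis with strand displacement by Pol beta. Compound and 10 nM enzyme sit 15 min at room temperature; 50 nM substrate starts the reaction, read immediately and at 10 min.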
% is set by controls: 0 for no effect and ±100 for the full control effect; potency is the fitted concentration of half-maximal effect.

Potency, active:
S=c1[nH]nc(-c2ccccn2)n1/N=C/c1ccc(-c2ccccc2Br)o1 50.1 µM
Cc1ccc(Cl)cc1NC(=O)c1cc2ccccc2cc1O 25.1 µM
O=C(Nc1ccc(S(=O)(=O)Nc2nccs2)cc1)c1cc(-c2ccncc2)nc2ccccc12 15.8 µM
CC(/C=C/c1ccc(Cl)o1)=C\C(=O)O 31.6 µM
O=C(N/N=C/c1cc(Br)c(Br)o1)c1ccc2c(c1)OCCO2 8.91 µM
O=C(CCS(=O)(=O)c1ccccc1)Nc1ccc2c(c1)OCO2 11.2 µM
Cc1ccc(N=Nc2c(=O)[nH]n3c(=O)cc(C)[nH]c23)cc1 0.891 µM
CCOC(=O)c1sc(Nc2nc3cc4c(cc3s2)OCO4)cc1C 35.5 µM
CC1CC1C(=O)OCC(=O)Nc1ccc2[nH]c(=O)[nH]c2c1 (stereo not given) 25.1 µM
CC(C)OC(=O)CC(=O)c1sc2nc3c(cc2c1N)CN(C)CC3 39.8 µM
CCOC(=O)N1CCC(NC(=O)c2cccc3c2C(=O)N(c2ccc(OC)cc2)C3)CC1 10 µM

5 structures out of the list, ordered by length of the SMILES, rising.
Potency, active:
CC(/C=C/c1ccc(Cl)o1)=C\C(=O)O 31.6 µM
Cc1ccc(Cl)cc1NC(=O)c1cc2ccccc2cc1O 25.1 µM
O=C(CCS(=O)(=O)c1ccccc1)Nc1ccc2c(c1)OCO2 11.2 µM
CCOC(=O)N1CCC(NC(=O)c2cccc3c2C(=O)N(c2ccc(OC)cc2)C3)CC1 10 µM
O=C(Nc1ccc(S(=O)(=O)Nc2nccs2)cc1)c1cc(-c2ccncc2)nc2ccccc12 15.8 µM

Next part.

Potency, inconclusive:
Cc1ccccc1NC(=O)CCC(=O)N1CCSc2ccccc21 0.631 µM [inhibitor, full curve, poor fit]
COC(=O)C1CCN(Cc2cn(Cc3ccccc3)nc2-c2cc3ccccc3o2)CC1 1.58 µM [inhibitor, full curve]
CCN1CCN(C(=S)Nc2ccc([N+](=O)[O-])cc2)CC1 100 µM [inhibitor, single point]
CC1CCN(c2nc3nonc3nc2N2CCC(C)CC2)CC1 0.891 µM [inhibitor, full curve, poor fit]
Cc1c(CC(=O)O)c(=O)oc2c(C)c(OCc3ccc(F)cc3Cl)ccc12 7.94 µM [inhibitor, full curve, poor fit]
CC(=O)CC(C)(C)Nc1nc2cc([N+](=O)[O-])ccc2o1 0.158 µM [inhibitor, full curve, poor fit]
Cc1cccc(N2C(=O)C(O)=C(C(=O)c3cccs3)C2c2cccc(Oc3ccccc3)c2)n1 (stereo not given) 35.5 µM [inhibitor, single point]
COc1ccc(CCN2CN(S(=O)(=O)c3ccccc3)c3nc4ccccc4nc32)cc1OC 89.1 µM [inhibitor, single point]
Cc1cccc(C)c1NC(=O)Cn1nnc(S(=O)(=O)c2ccccc2)c1N 22.4 µM [inhibitor, partial curve]
COc1ccc(NC(=O)CSc2ccccc2)c([N+](=O)[O-])c1 89.1 µM [inhibitor, single point]
CC(=O)Nc1cc(NC(C)=O)cc(C(=O)N2CCCC3CCCCC32)c1 (stereo not given) 89.1 µM [inhibitor, single point]
CCN(CC)C(=N)N1c2ccccc2CCC1C (stereo not given) 89.1 µM [inhibitor, single point]
Cn1c(=O)[nH]c(=O)c2c1nc(NC1CCCCC1)n2CCO 3.16 µM [inhibitor, full curve, poor fit]
CC1=N/C(=C/c2cc(Br)cc(Br)c2O)C(=O)O1 100 µM [inhibitor, single point]
COc1ccc(N2CCN(C(=O)CSc3nnc(-c4ccc5[nH]c(C)c(C)c5c4)o3)CC2)cc1 35.5 µM [inhibitor, single point]
COCCn1nnnc1C(c1ccc(OC)cc1)N1CCC(C)CC1 (stereo not given) 89.1 µM [inhibitor, single point]
Cc1ccc(CNC(=O)c2cc(=O)c3cc(C)ccc3o2)cc1 11.2 µM [inhibitor, partial curve, poor fit]
CC1=Nn2c(nnc2-c2ccccc2F)SC1 1.12 µM [inhibitor, full curve]
COc1ccc(C(Nc2ccccn2)c2ccc3ccc(C)nc3c2O)cc1C (stereo not given) 0.316 µM [inhibitor, full curve]
COc1cnc(SCc2c(Cl)cccc2Cl)nc1Cl 1 µM [inhibitor, full curve]
Cn1c(=O)c2c(ncn2CC(=O)N/N=C/C(Br)=C/c2ccccc2)n(C)c1=O 79.4 µM [inhibitor, single point]
COCCOC(=O)c1[nH]c2c(c1C)C(=O)CC(c1ccc(F)cc1)C2 (stereo not given) 39.8 µM [inhibitor, single point]
CC(C)c1ccc(/C=N/NC(=O)c2ccccn2)cc1 14.1 µM [inhibitor, partial curve, poor fit]
CCOC(=O)Cc1cc(=O)n2[nH]c(C)c(-c3ccccc3OC)c2n1 1.58 µM [inhibitor, full curve, poor fit]
COc1ccc(S(=O)(=O)Nc2ccc(S(=O)(=O)N(C)C)cc2)cc1[N+](=O)[O-] 5.01 µM [inhibitor, single point]
O=[n+]1c2c(n([O-])c3cc(Br)ccc31)CCC2 35.5 µM [inhibitor, full curve]
Cc1cc(C)c(OCC(=O)N(C)CC(=O)Nc2ccc(N3CCOCC3)cc2)c(C)c1 1 µM [inhibitor, full curve, poor fit]
O=C(CCn1c(=O)oc2ccccc21)Nc1cccc(Cl)c1 25.1 µM [inhibitor, partial curve, poor fit]
O=C(Cc1ccc(F)cc1)N1CCN(c2ccc(F)cc2)CC1 39.8 µM [inhibitor, single point]
CN(CC(=O)Nc1ccc(C#N)cc1)Cc1ccc(Cl)cc1 1.78 µM [inhibitor, partial curve, poor fit]
O=C(O)CC(C(=O)O)c1ccc(OCCCCOc2ccc(C(CC(=O)O)C(=O)O)cc2)cc1 (stereo not given) 89.1 µM [inhibitor, single point]
COc1ccc(C2C(=O)N(C3CCCCC3)CC(=O)N2Cc2ccco2)cc1 (stereo not given) 31.6 µM [inhibitor, partial curve]
Cc1cc(C(=O)C(C)Cl)c(C)n1Cc1ccco1 (stereo not given) 31.6 µM [inhibitor, partial curve]
COc1cc(/C=N/NC(=O)c2ccc(COc3cc(C)ccc3C(C)C)cc2)cc(OC)c1O 12.6 µM [inhibitor, full curve]
Cc1cc(=O)n2c3ccccc3n(CC(O)CN3CCN(Cc4ccccc4)CC3)c2c1C#N (stereo not given) 89.1 µM [inhibitor, single point]
C=CCN1C(=O)/C(=C\c2ccco2)C(C(=O)OC)=C1C 79.4 µM [inhibitor, single point]
S=C(Nc1ccc2cn[nH]c2c1)Nc1ccc(Cl)cc1Cl 89.1 µM [inhibitor, single point]
COc1cccc(Nc2nnc(-c3cc4ccc(O)cc4oc3=O)s2)c1 5.62 µM [inhibitor, full curve, poor fit]
O=C(CCCCCn1c(=S)[nH]c2cc3c(cc2c1=O)OCO3)N1CCN(C2CCCCC2)CC1 4.47 µM [inhibitor, single point]
Cn1c(N/N=C/c2ccccc2)nc2sc3c(c2c1=O)CCC3 10 µM [inhibitor, full curve, poor fit]
COc1ccc2ccc3c(c2c1)N=CC1(O3)N(C)c2ccccc2C1(C)C (stereo not given) 89.1 µM [inhibitor, single point]

Three compounds already listed, ordered by molecular weight, smallest number first.
Potency, inconclusive:
O=C(Cc1ccc(F)cc1)N1CCN(c2ccc(F)cc2)CC1 39.8 µM [inhibitor, single point]
CCOC(=O)Cc1cc(=O)n2[nH]c(C)c(-c3ccccc3OC)c2n1 1.58 µM [inhibitor, full curve, poor fit]
CC(=O)Nc1cc(NC(C)=O)cc(C(=O)N2CCCC3CCCCC32)c1 (stereo not given) 89.1 µM [inhibitor, single point]

Following part:

Activity change, negative = inhibition, inconclusive:
O=C(c1ccccc1F)N1CCN(C(=O)C(c2ccccc2)c2ccccc2)CC1 -36.7% [inhibitor]
NNC(=O)c1ccc(OCC2CC(c3ccc(Cl)cc3)=NO2)cc1 (stereo not given) -60.9% [inhibitor]

Activity change, negative = inhibition, inactive:
CCOc1ccc(CCNC(=O)C2CCN(c3ncnc4c3nc3n4CCCCC3)CC2)cc1 0.0613%
c1ccc(CCNc2nc(-c3ccccn3)nc3ccccc23)cc1 -6.16%
Cc1ccc(NCC(=O)Nc2ccc(Br)cc2)cc1C -1.69%
O=C(CSc1nc(=O)n(Cc2ccccn2)c2c1CCC2)Nc1ccccc1 -24.2%
Cc1ccc(S(=O)(=O)C(CNS(=O)(=O)c2cc(F)ccc2F)c2cccs2)cc1 (stereo not given) -3.18%
Cc1cccc(S(=O)(=O)c2cn(Cc3ccccc3)c3cc(N4CCCCC4)c(F)cc3c2=O)c1 7.12%
CCN(Cc1nc(-c2ccc(OC)c(OC)c2)no1)S(=O)(=O)c1ccc(OC)cc1 -10.6%
CCOC(=O)C1(CC2CCCCO2)CCN(Cc2nc(C(C)C)cs2)CC1 (stereo not given) -11.6%
COCCn1c(=NC(=O)c2cc(Cl)sc2Cl)sc2cc(S(N)(=O)=O)ccc21 -20.7%
O=C(N/N=C/C=C/c1ccc2c(c1)OCO2)c1ccc([N+](=O)[O-])cc1 2.27%
CCN1CCN(c2oc(-c3ccc(COc4ccccc4C)o3)nc2C#N)CC1 -6.14%
CN(C)S(=O)(=O)c1ccc(C(=O)Nc2ccn(C)n2)cc1 -1.76%
COc1ccc(-c2c(C)c3ccc(O)c(CN4CCC(C)CC4)c3oc2=O)cc1OC 5.34%
Cc1cccc(-c2noc(-c3cc(C(C)C)[nH]n3)n2)c1 -18.6%
CC(NC(=O)Cn1c(=O)oc2cc(S(=O)(=O)N3CCCCCC3)ccc21)c1ccccc1 (stereo not given) 2.52%
O=C(NCCc1c[nH]c2ccccc12)C(=O)NCC1OCCN1S(=O)(=O)c1cc(F)ccc1F (stereo not given) 18.3%
